Experiment: absorption spectrum of aqueous solution
Assay type: physicochemical
Conditions: 20 mg/ml in ion-exchanged water, FIG. 1

copper salt of phytic acid [Example 1]
absorption in the region of 400-600 nm (visible light): does not substantially show absorption
wavelength range showing absorption (near infrared): 750-1100 nm

Source: patent US6388116B1, “Near infrared absorbing compound” (Nisshinbo Industries, Inc., priority 1999, dated 2002)
